# Test results published in patent publication US6417159B1 (Queen's University at Kingston, priority 1996, dated 2002).
# The chains behind the UniProt entries cited, without tags or fusion partners. Residues count along the entry.
# UniProt P07174, residues 30-425: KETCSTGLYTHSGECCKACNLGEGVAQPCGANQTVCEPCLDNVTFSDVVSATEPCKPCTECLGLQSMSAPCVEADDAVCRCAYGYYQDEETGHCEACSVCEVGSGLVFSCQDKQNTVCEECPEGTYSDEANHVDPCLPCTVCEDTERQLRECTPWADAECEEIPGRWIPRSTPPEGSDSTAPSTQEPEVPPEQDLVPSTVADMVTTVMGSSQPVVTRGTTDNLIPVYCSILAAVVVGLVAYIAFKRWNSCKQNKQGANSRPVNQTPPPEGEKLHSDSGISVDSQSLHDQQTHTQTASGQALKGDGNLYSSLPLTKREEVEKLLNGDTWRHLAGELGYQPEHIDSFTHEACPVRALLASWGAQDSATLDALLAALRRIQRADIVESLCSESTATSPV
# UniProt P01139, residues 122-239: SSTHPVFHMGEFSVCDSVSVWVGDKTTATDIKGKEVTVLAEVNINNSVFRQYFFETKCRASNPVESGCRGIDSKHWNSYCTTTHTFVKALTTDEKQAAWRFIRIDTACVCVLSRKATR
# These are yes or no findings as the source states them, for the method shown. Some binding calls cover weakened binding; strength is not graded here.
# Biological target: p75NTR (common neurotrophin receptor) on PC12 cells (rat) (UniProt P07174)
# Assay: affinity cross-linking of [125I]NGF on intact PC12 cells (EDC/NHS), SDS-PAGE, autoradiography
substance,measurement,value
"[125I]NGF (nerve growth factor, radioiodinated) (from UniProt P01139 122-239) (ligand)",binding,binds
